Data from patent US20090137002A1 (published 2009).
These are yes or no findings as the source states them, for the method shown. Some binding calls cover weakened binding; strength is not graded here.

The chains behind the UniProt entries cited, without tags or fusion partners. Residues count along the entry.
UniProt P54760, residues 16-987: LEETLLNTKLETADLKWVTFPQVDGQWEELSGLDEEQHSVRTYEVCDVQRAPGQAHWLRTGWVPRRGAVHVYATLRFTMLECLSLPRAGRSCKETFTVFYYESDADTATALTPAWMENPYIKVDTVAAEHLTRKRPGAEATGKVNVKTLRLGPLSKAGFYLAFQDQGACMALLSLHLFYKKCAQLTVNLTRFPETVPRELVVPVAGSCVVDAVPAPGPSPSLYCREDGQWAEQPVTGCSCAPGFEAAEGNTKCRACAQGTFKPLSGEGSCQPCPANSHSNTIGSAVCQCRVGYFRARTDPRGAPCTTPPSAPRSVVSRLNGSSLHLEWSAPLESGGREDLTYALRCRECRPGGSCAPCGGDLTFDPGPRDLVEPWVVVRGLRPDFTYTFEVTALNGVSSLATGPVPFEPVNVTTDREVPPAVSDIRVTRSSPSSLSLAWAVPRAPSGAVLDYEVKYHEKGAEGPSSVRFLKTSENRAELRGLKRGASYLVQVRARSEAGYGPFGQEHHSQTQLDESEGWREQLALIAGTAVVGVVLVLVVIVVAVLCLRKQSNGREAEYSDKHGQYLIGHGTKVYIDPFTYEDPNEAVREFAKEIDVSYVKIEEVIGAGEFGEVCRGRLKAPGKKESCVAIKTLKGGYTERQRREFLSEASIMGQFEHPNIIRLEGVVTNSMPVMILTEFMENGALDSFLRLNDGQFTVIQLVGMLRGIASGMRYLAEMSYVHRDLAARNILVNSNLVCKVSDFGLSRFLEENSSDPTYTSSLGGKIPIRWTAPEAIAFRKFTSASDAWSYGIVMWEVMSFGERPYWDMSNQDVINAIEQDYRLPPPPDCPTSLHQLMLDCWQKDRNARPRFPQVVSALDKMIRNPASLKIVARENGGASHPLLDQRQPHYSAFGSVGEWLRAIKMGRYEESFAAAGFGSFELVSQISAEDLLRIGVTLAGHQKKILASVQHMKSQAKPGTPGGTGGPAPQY

How the values were obtained:
[1] = target: myc-tagged human EphB4 on transfected CHO cells (human) (UniProt P54760); assay: FACS titration of IgG4-Pro on CHO-EphB4 cells
[2] = target: myc-tagged human EphB4 on transfected CHO cells (human) (UniProt P54760); assay: FACS competition on CHO-EphB4 cells, competitor murine ephrin-B2

binding [1]: binds
binding [2]: binds
B1: MOR07724 IgG4-Pro (antibody, V domains shown)
VH: QVQLVESGGGLVQPGGSLRLSCAASGFTFNNAWMSWVRQAPGKGLEWVSGISADGVHKFYADSVKGRFTISRDNSKNTLYLQMNSLRAEDTAVYYCARKGMSFYNNKYAKSMFDLWGQGTLVTVSS
VL: DIELTQPPSVSVAPGQTARISCSGDNLGKKYVHWYQQKPGQAPVLVIYYDSKRPSGIPERFSGSNSGNTATLTISGTQAEDEADYYCSAWTTTMMHIVFGGGTKLTVLG
notes: Fab MOR07724 converted into human IgG4-Pro format
